Tests used:
[1] = system: Male rats; assay: Diuretic and natriuretic test in anesthetized rats, urine collected before and 5 minutes after jugular vein injection (Table 2); assay type: in vivo, rat; settings: furosemide 1.21 μmole (group IV)
Experimental: Male rats weighing 300 to 400 grams were anesthetized by intraperitoneal administration of pentobarbital at a dosage of 60 mg/kg, and used for tests of the β-rANP according to the method described in Life Sciences, Vol. 28, pp 89-94.
To keep the respiratory tract open, a tracheal cannula (PE-240 Clay-Adams) was inserted into the trachea. An arterial cannula (PE-50) was inserted into a femoral artery for measurement of the blood pressure, and a venous cannula was inserted into a femoral vein for the administration of Ringer's solution. 1.2 ml of Ringer's solution was infused at a flow rate of 1.2 ml/hour.
A bladder cannula made of silastic tube with a inner diameter of 0.02 inches and an outer diameter of 0.037 inches was inserted into the bladder, and via the cannula, a urine sample was collected into a test tube. The collection of urine was carried out for 30 minutes before administration of the test compound, and every five minutes after the administration.
A predetermined amount of the test compound β-rANP was dissolved in 50 μl of sterilized physiological saline with 5 μg of bacitracin, and the solution was injected into the jugular vein.
The amount of β-rANP administered was 0.4 n mole (group II), or 0.8 n mole (group III). The control group (group I) was administered 50 μl of physiological saline containing only bacitracin. For comparison, group IV received 50 μl of physiological saline containing bacitracin and 1.21μ mole of furosemide, which is a known natriuretic agent.
Groups I to III each consisted of three animals, and group IV consisted of four animals.

[2] = system: Male rats; assay: Another test: relative amounts of urine, Na+, K+, Cl- for 30 minutes before and after administration (Table 3); assay type: in vivo, rat; settings: Furosemide 0.3 μmol
[3] = A: 5 minutes after administration
[4] = B: 30 minutes before administration

## NS(=O)(=O)c1cc(C(=O)O)c(NCc2ccco2)cc1Cl [Furosemide, furosemide]
[1]; [3]
  Cl^- Excretion A: 40242 ± 6859 n eq/min
  K^+ Excretion A: 6897 ± 392 n eq/min
  Na^+ Excretion A: 20018 ± 2990 n eq/min
[1]; [4]
  Cl^- Excretion B: 1708 ± 334 n eq/min
  K^+ Excretion B: 1945 ± 465 n eq/min
  Na^+ Excretion B: 1134 ± 283 n eq/min
[1]; urine, A: 5 minutes after administration
  Na/K ratio A: 2.90
[1]; urine, B: 30 minutes before administration
  Na/K ratio B: 0.58
[2]
  Cl^- Excretion, percentage after relating to before: 440 ± 129%
  K^+ Excretion, percentage after relating to before: 119 ± 13%
  Na^+ Excretion, percentage after relating to before: 470 ± 154%

— patent publication US4657891A, “Diuretic peptide, and production and use thereof” (Suntory Limited, priority 1984, dated 1987)
